Reference: PMC12612596, “Real‐time FRET assay for monitoring detyrosination by TMCP1 and VASH2” (Protein Science : A Publication of the Protein Society, 2025)
No constants are given. Whether binding was seen depends on the method and setting. Some entries that bind do so weakly or less than the wild type. Sequences can lack the tags named with a protein.

The chains behind the UniProt entries cited, without tags or fusion partners.
UniProt Q86V25: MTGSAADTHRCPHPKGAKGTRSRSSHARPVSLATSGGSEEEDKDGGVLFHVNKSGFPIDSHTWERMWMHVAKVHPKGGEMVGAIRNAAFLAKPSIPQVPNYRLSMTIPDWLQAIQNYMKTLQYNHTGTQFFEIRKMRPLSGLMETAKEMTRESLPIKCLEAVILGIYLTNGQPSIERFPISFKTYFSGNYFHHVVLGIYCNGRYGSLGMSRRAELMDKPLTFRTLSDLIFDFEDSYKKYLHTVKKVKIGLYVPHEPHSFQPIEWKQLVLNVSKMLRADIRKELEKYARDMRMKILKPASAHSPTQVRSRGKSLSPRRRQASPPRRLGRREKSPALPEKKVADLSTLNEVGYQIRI
UniProt Q7L8A9: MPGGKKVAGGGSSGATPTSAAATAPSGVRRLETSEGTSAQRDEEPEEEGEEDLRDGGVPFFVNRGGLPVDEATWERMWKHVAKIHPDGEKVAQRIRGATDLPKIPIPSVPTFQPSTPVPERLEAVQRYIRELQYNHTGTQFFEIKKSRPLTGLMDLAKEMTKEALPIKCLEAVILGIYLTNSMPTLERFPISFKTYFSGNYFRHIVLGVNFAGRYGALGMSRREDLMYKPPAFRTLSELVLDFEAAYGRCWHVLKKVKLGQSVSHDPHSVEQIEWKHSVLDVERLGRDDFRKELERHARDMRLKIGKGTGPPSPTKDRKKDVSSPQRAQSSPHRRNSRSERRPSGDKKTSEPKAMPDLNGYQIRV

Key:
[1] = biological target: Vasohibin 2 (VASH2), His- and T7-tagged (UniProt Q86V25); assay: co-expression and co-purification (Ni-NTA); His-/T7-tagged VASH1 or VASH2 co-expressed with T7-tagged SVBP from a bicistronic vector in E. coli; His-tagged protein captured on Ni-NTA agarose in 50 mM Tris pH 8, 300 mM NaCl, 0.05% tween, eluted with 250 mM imidazole
[2] = biological target: Vasohibin 1 (VASH1), His- and T7-tagged (UniProt Q7L8A9); assay: as above

B1: Small Vasohibin Binding Protein (SVBP), T7-tagged (protein, UniProt Q8N300 1-66)
chain: MDPPARKEKTKVKESVSRVEKAKQKSAQQELKQRQRAEIYALNRVMTELEQQQFDEFCKQMQPPGE
[1]
  binding: binds
[2]
  binding: binds
